# PubChem BioAssay AID743454, Peter MacCallum Cancer Centre, 2014
# Test: 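Search for knock-downs that restore vorinostat killing in resistant colon cancer cells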 (primary screen)
# Cell system: human HCT116-VR colon cancer cells, selected for vorinostat resistance
# Knock-down reagent: siRNA pool against human genes, 40 nM siRNA pool
# Timing: vorinostat for 24 h, read-out about 72 h after transfection
# Treatment: vorinostat at 2.5 µM final
# Measured: 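Two measures, CellTiter-Fluor viability and luminescent caspase 3/7 activity, each as fold change against same-plate mock wells, mean of duplicates, then screen-wide robust z-score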
# Reading the numbers: viability robust z-score: higher = more viable cells than screen typical; caspase robust z-score: higher = more caspase 3/7 activity than screen typical
# Call rule: 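a knock-down is a hit when classed RV1 or RV2 for lowered viability, or CA1 or CA2 for caspase activation; those lethal without drug were dropped; hits were retested singly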
# Here is one part, drawn at random, of about 18,000 reagents tested. Of all reagents, 450 (2.5%) are marked active. 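Single biological run; no consistent viability z cut-off exists, so the class columns, not z-scores, define the calls.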 A number with no mark means an inactive call.
gene,viability hit class,caspase hit class,viability robust z-score,caspase robust z-score
FOXP4,no change,no change,-0.47,-0.45
PROCA1,no change,no change,-0.31,-0.45
MYL1,no change,no change,-1.36,0.38
TRAF4,no change,no change,-0.94,-0.02
BAP1,no change,no change,0.18,2.58
SFTPA2B (retired record),no change,no change,0.22,0.48
MPDU1,no change,no change,0.58,0.69
FASTKD2,no change,no change,0.23,2.38
FMNL1,no change,no change,1.25,-0.43
DDO,no change,no change,0.08,4.01
ZFP64,no change (active),CA2 (caspase activation),-1.02,7
VWA7,no change,no change,0.91,-0.18
PRL,no change,no change,-2.07,3.29
EPB41L2,no change,no change,0.3,3.33
INVS,no change,no change,0.64,-0.82
FAM47B,no change,no change,0.45,-0.12
COL1A1,no change,no change,-0.32,-0.66
TP53,no change,no change,-0.28,-0.07
LACRT,no change,no change,0.17,2.06
PRKCQ,no change,no change,0.88,0.38
RB1CC1,no change,no change,-4.46,2.26
SSTR2,no change,no change,0.71,1.7
SPDYE3,no change,no change,0.11,-0.9
ABHD12,no change,no change,-1.42,1.12
GDF10,no change,no change,-0.78,2.55
ARID4A,no change,no change,-0.44,1.66
DEFB105A,no change,no change,-0.18,-0.2
ABITRAM,no change,no change,0.7,-1.01
GET3,no change,no change,0.18,-0.72

A stretch taken from the entries so far:
gene,viability hit class,caspase hit class,viability robust z-score,caspase robust z-score
DDO,no change,no change,0.08,4.01
ZFP64,no change (active),CA2 (caspase activation),-1.02,7
VWA7,no change,no change,0.91,-0.18
PRL,no change,no change,-2.07,3.29
EPB41L2,no change,no change,0.3,3.33

Additional entries:
gene,viability hit class,caspase hit class,viability robust z-score,caspase robust z-score
CYB5D1,no change,no change,0.34,-0.1
H2AJ,no change,no change,1.27,1.47
PRAMEF12,no change,no change,-1.41,0.22
HACD4,no change,no change,0.56,0.87
TRPS1,no change,no change,1.62,0.9
PHYHIPL,no change,no change,-0.64,0.27
MITF,no change,no change,1.17,-0.42
WT1,no change,no change,0.9,0.12
MS4A7,no change,no change,-0.28,0.16
MAML1,no change,no change,0.75,-0.23
S100B,no change,no change,0.44,-0.94
BOK,no change,no change,0.14,-0.96
BMAL2,no change,no change,1.21,0.44
HDDC3,no change,no change,0.73,-0.62
LIMCH1,no change,no change,-0.45,-0.27
PARL,no change,no change,-1.53,-1.07
SELENOS,no change,no change,0.03,-0.64
AKAP8L,no change,no change,-0.16,1
PCBP2,no change,no change,0.04,-0.66
TENT5A,no change,no change,0.46,1.75
FOXD2,no change,no change,-0.39,-0.04
GPT,no change,no change,-1.53,1.9
LINS1,no change,no change,0.01,0.41
BBS10,no change,no change,-0.5,-1.03
TMIGD1,no change,no change,-0.06,2.67
PRDM10,no change,no change,1.07,-0.24
MAP2K4,no change,no change,1.48,-0.76
PLD4,no change,no change,0.54,-1.09
CRYAB,no change,no change,-0.7,1.19
PDGFC,no change,no change,0.11,-1.09
PROKR2,no change,no change,-0.77,-0.86
GLOD5,no change,no change,1.14,-0.14
HDAC3,no change,no change,-0.91,-0.14
GP2,no change,no change,-1.24,0.67
SHROOM4,no change,no change,-0.06,2.38
OR13C5,no change,no change,-0.11,-0.5
PRSS3,no change,no change,-0.1,0.9
AP2A2,no change,no change,-1.77,1.02
TMEM167B,no change,no change,-0.84,1.43
NUP37,no change,no change,0.16,-0.5
CHLSN,no change,no change,-0.52,-0.26
OR2F1,no change,no change,-1.23,2.12
KATNB1,no change,no change,-0.6,0.34
GSDMC,no change,no change,-0.84,-0.8
